Reference: paper doi:10.1101/2022.10.05.510978
Like-named read-outs stand apart in the source and are kept apart here. No constants are given. Whether binding was seen depends on the method and setting. Binding seen in cells or lysates may run through a third protein. Some entries that bind do so weakly or less than the wild type. For part of these data: Where a sequence is shown, tags or fusion partners need not be part of it. Blank lines part the entries; values can stand above or below the molecule they belong to.

Sequences of proteins named here, by UniProt entry; tags and fusion partners are left off.
UniProt Q9BV86: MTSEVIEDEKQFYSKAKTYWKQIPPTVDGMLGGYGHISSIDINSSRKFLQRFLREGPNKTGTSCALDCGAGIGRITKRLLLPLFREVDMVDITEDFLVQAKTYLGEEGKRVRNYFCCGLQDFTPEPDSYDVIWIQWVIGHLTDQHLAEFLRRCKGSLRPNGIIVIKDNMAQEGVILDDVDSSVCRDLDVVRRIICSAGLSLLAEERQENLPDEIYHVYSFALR
UniProt Q5VVY1: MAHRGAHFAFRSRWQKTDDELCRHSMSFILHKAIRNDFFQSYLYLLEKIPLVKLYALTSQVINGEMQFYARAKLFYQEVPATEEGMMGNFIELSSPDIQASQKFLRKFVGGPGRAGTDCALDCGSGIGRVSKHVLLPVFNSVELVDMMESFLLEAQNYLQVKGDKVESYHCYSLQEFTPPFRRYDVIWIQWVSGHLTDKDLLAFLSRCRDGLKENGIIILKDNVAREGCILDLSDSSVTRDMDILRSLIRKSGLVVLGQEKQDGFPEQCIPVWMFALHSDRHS

Columns and labels:
Assay in all cases: co-IP
[1] = biological target: METTL11A-FLAG (human) (UniProt Q9BV86)
[2] = biological target: METTL11A-FLAG (human) (UniProt Q9BV86); remark: listed apart in the source
[3] = biological target: METTL11B-FLAG (human) (UniProt Q5VVY1)
[4] = biological target: METTL11B-FLAG (human) (UniProt Q5VVY1); remark: listed apart in the source

binding [1]: binds
Molecule: METTL11B-GFP (from UniProt Q5VVY1 1-283) (enzyme)

binding [2]: no binding
B1: METTL13 C-terminal fragment (residues E345-V699)-GFP (domain or fragment, UniProt Q8N6R0 345-699)
chain: ESMDHIQAELSARVMELAPAGMPTQQQVPFLSVGGDIGVRTVQHQDCSPLSGDYVIEDVQGDDKRYFRRLIFLSNRNVVQSEARLLKDVSHKAQKKRKKDRKKQRPADAEDLPAAPGQSIDKSYLCCEHHKAMIAGLALLRNPELLLEIPLALLVVGLGGGSLPLFVHDHFPKSCIDAVEIDPSMLEVATQWFGFSQSDRMKVHIADGLDYIASLAGGGEARPCYDVIMFDVDSKDPTLGMSCPPPAFVEQSFLQKVKSILTPEGVFILNLVCRDLGLKDSVLAGLKAVFPLLYVRRIEGEVNEILFCQLHPEQKLATPELLETAQALERTLRKPGRGWDDTYVLSDMLKTVKIV

binding [2]: binds
B2: METTL13 N-terminal fragment (residues M1-Y344)-GFP (domain or fragment, UniProt Q8N6R0 1-344)
chain: MNLLPKSSREFGSVDYWEKFFQQRGKKAFEWYGTYLELCGVLHKYIKPREKVLVIGCGNSELSEQLYDVGYRDIVNIDISEVVIKQMKECNATRRPQMSFLKMDMTQMEFPDASFQVVLDKGTLDAVLTDEEEKTLQQVDRMLAEVGRVLQVGGRYLCISLAQAHILKKAVGHFSREGWMVRVHQVANSQDQVLEAEPQFSLPVFAFIMTKFRPVPGSALQIFELCAQEQRKPVRLESAERLAEAVQERQQYAWLCSQLRRKARLGSVSLDLCDGDTGEPRYTLHVVDSPTVKPSRDNHFAIFIIPQGRETEWLFGMDEGRKQLAASAGFRRLITVALHRGQQY

binding [3]: binds | binding [4]: binds | binding [2]: binds
B3: METTL13-GFP (enzyme, UniProt Q8N6R0 1-699)
chain: MNLLPKSSREFGSVDYWEKFFQQRGKKAFEWYGTYLELCGVLHKYIKPREKVLVIGCGNSELSEQLYDVGYRDIVNIDISEVVIKQMKECNATRRPQMSFLKMDMTQMEFPDASFQVVLDKGTLDAVLTDEEEKTLQQVDRMLAEVGRVLQVGGRYLCISLAQAHILKKAVGHFSREGWMVRVHQVANSQDQVLEAEPQFSLPVFAFIMTKFRPVPGSALQIFELCAQEQRKPVRLESAERLAEAVQERQQYAWLCSQLRRKARLGSVSLDLCDGDTGEPRYTLHVVDSPTVKPSRDNHFAIFIIPQGRETEWLFGMDEGRKQLAASAGFRRLITVALHRGQQYESMDHIQAELSARVMELAPAGMPTQQQVPFLSVGGDIGVRTVQHQDCSPLSGDYVIEDVQGDDKRYFRRLIFLSNRNVVQSEARLLKDVSHKAQKKRKKDRKKQRPADAEDLPAAPGQSIDKSYLCCEHHKAMIAGLALLRNPELLLEIPLALLVVGLGGGSLPLFVHDHFPKSCIDAVEIDPSMLEVATQWFGFSQSDRMKVHIADGLDYIASLAGGGEARPCYDVIMFDVDSKDPTLGMSCPPPAFVEQSFLQKVKSILTPEGVFILNLVCRDLGLKDSVLAGLKAVFPLLYVRRIEGEVNEILFCQLHPEQKLATPELLETAQALERTLRKPGRGWDDTYVLSDMLKTVKIV
